Values of other authors in patent publication US11749383B2, “Methods and systems of predicting agent induced effects in silico” (The Regents of the University of California, priority 2016, dated 2023).

Test system: native IKs
Settings: read-out: IC50, IKs block; 500 ms; cited from earlier work

For `CCCCc1oc2ccccc2c1C(=O)c1cc(I)c(OCCN(CC)CC)c(I)c1` [Amiodarone], the IC50 is listed as 1.74 µM.
